Data as given in PubChem BioAssay AID1259299 (Sanger Institute, 2017).
Assay: 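Kinases and colorectal mutated genes needed by colorectal cancer cells, with or without drugs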 (primary screen). Cell system: human CAR1 colorectal cancer cells. Reagent: siRNA pool against human genes. Treatment: anchor drug BYL719 1 µM, cetuximab 5 µg/ml or trametinib 10 nM, or DMSO vehicle alone; exposure length not given. Measurement: 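Mean replicate viability versus non-targeting controls, turned into robust z-scores, plus drug synergy scores for BYL719, cetuximab and trametinib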. Direction: viability robust z-score, knock-down alone: higher = more viable cells. Active means: 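Essential when viability robust z-score with knock-down alone (DMSO) is below -3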. Calls: active = essential (knock-down alone); inactive = no change.
This is one part, drawn at random, of 794 reagents tested. 9 of them (1.1%) count as active. 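Calls rest on knock-down alone; synergy scores play no part in calls, and no gene passed the synergy cut.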 Entries without a mark were called inactive. Further read-outs or replicates are left out here. Not stated in the record: the amount of reagent, the time to read-out.

The opening 4 entries, to show the layout:
| Target gene | viability robust z-score, knock-down alone |
| --- | --- |
| BMPR1B (GeneID 658) | -0.477 |
| AKAP9 (GeneID 10142) | -0.317 |
| PSKH2 (GeneID 85481) | -1.82 |
| BUB1B (GeneID 701) | -0.215 |

Main list, from the start:
| Target gene | viability robust z-score, knock-down alone |
| --- | --- |
| BMPR1B (GeneID 658) | -0.477 |
| AKAP9 (GeneID 10142) | -0.317 |
| PSKH2 (GeneID 85481) | -1.82 |
| BUB1B (GeneID 701) | -0.215 |
| ALPK3 (GeneID 57538) | 0.755 |
| FYN (GeneID 2534) | -0.208 |
| RELA (GeneID 5970) | -1.64 |
| CKMT1B (GeneID 1159) | 0.789 |
| RPS6KA6 (GeneID 27330) | 0.703 |
| MAPK1 (GeneID 5594) | -0.953 |
| MAPK4 (GeneID 5596) | -2.34 |
| CLK3 (GeneID 1198) | -1.39 |
| EPHA7 (GeneID 2045) | -0.185 |
| EIF2AK4 (GeneID 440275) | 0.789 |
| NME1 (GeneID 4830) | 0.789 |
| CDK20 (GeneID 23552) | -0.365 |
| CLK4 (GeneID 57396) | -0.572 |
| PEAK1 (GeneID 79834) | -1.22 |
| EGFR (GeneID 1956) | 0.49 |
| COQ8B (GeneID 79934) | 0.789 |
| MST1R (GeneID 4486) | -0.299 |
| CAMK2B (GeneID 816) | -1.31 |
| MAPK11 (GeneID 5600) | -0.542 |
| TEC (GeneID 7006) | -0.295 |
| STK24 (GeneID 8428) | 0.789 |
| GNAS (GeneID 2778) | -0.118 |
| EIF2AK1 (GeneID 27102) | -0.249 |
| MAP2K5 (GeneID 5607) | 0.789 |
| PRKCD (GeneID 5580) | 0.551 |
| MYH10 (GeneID 4628) | 0.6 |
| TNNI3K (GeneID 51086) | -1.76 |
| LIMK2 (GeneID 3985) | 0.789 |
| XYLB (GeneID 9942) | -0.524 |
| DAPK3 (GeneID 1613) | -0.0434 |
| MAP3K9 (GeneID 4293) | -0.0329 |
| EPHB4 (GeneID 2050) | 0.12 |
| AXL (GeneID 558) | 0.789 |
| TSSK1B (GeneID 83942) | 0.736 |
| DYRK1A (GeneID 1859) | 0.556 |
| SF3B1 (GeneID 23451) | -1.98 |
| CDKN1B (GeneID 1027) | 0.789 |
| KCNH8 (GeneID 131096) | -0.215 |
| STKLD1 (GeneID 169436) | 0.789 |
| CDK15 (GeneID 65061) | 0.789 |
| ERBB4 (GeneID 2066) | -0.325 |
| STK4 (GeneID 6789) | 0.226 |
| PNKP (GeneID 11284) | -1.74 |
| IRAK3 (GeneID 11213) | -1.7 |
| ACVR1B (GeneID 91) | 0.21 |
| PKN1 (GeneID 5585) | 0.789 |
| PAK4 (GeneID 10298) | 0.789 |
| ULK1 (GeneID 8408) | 0.157 |
| TSKS (GeneID 60385) | 0.789 |
| TBK1 (GeneID 29110) | -1.49 |
| SYK (GeneID 6850) | 0.789 |
| SMG1 (GeneID 23049) | -0.548 |
| CAMK4 (GeneID 814) | 0.789 |
| EIF2AK3 (GeneID 9451) | 0.789 |
| RPS6KL1 (GeneID 83694) | -1.55 |
| KIT (GeneID 3815) | -0.182 |
| DGKG (GeneID 1608) | 0.15 |
| PDK3 (GeneID 5165) | 0.789 |
| NME5 (GeneID 8382) | 0.789 |
